Experimental findings from patent US20060257406A1 (published 2006) are described below.

Sequences of proteins named here, by UniProt entry; tags and fusion partners are left off. A change or cut given only in a name is not applied to a line headed by its entry.
UniProt P19438: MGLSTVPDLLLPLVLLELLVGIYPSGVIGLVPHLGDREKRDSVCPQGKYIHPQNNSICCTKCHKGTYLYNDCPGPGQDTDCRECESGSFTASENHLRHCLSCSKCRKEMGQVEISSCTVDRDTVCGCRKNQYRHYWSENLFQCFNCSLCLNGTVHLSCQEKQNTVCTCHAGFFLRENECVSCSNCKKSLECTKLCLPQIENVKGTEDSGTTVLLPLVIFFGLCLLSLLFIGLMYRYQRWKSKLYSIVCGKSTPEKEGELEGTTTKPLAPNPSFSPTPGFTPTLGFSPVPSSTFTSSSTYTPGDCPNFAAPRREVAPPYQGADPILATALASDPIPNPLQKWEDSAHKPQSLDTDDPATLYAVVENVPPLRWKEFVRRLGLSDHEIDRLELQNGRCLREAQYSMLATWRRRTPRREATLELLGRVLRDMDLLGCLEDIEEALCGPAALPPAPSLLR

No constants are given. Whether binding was seen depends on the method and setting. Binding can be weak; no strength is given.

The assay deals with human p55 TNF receptor (human) (UniProt P19438). Put plainly: selection from a dAb library.

B1: TAR2h-5 (protein)
VH: EVQLLESGGGLVQPGGSLRLSCAASGFTFDLYNMFWVRQAPGKGLEWVSFISQTGRLTWYADSVKGRFTISRDNSKNTLYLQMNSLRAEDTAVYYCAKTLEDFDYWGQGTLVTVSS
On to B1, for which the binding entry is on record as “binds”.
